This note sets out measurements from publication PMC7862700.

The list shows a part of the results. The exact form of the protein is not confirmed.

The test has as its target T1, ETS1 (UniProt P14921).
T1 sequence: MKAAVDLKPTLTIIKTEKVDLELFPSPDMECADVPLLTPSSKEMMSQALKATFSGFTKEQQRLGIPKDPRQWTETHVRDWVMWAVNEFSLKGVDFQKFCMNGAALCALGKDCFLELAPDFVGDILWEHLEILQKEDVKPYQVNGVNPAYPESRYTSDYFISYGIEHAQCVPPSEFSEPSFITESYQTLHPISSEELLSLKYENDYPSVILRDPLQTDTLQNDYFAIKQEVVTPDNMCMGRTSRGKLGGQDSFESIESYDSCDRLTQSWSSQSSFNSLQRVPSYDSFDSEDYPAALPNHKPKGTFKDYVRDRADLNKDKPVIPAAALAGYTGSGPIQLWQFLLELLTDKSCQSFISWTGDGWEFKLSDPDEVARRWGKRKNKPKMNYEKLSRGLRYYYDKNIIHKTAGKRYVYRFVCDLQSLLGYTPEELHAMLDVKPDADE
The experiment in a line: DAPPL (digital affinity profiling via proximity ligation, sequencing). Conditions: 10 mM Tris-HCl pH 7.5, 50 mM NaCl, 1 mM DTT, 4% glycerol, room temperature, 30 min; GST-TFs on glutathione beads, 16-mer random dsDNA library, 0.1% …; high values mean tight binding; double strand, one strand shown; scale: fold enrichment (6-mer frequency, TF over GST control).
Consider TCACAA, for which the binding signal came out at 1.14. To TGTATG belongs 1.27; to TGCCGA, 1.1; to GTATCA, 1.13.

Sequence CTGTTG gave a binding signal of 1.11. Take CTCAAG: the binding signal is 1.21. To AAGTGC belongs 1.16; to CTTAGC, 1.13; to TTGTTC, 1.43. Turning to TGCCTC, the binding signal turned out to be 1.44. With CTATCA the figure was 1.02; with CAACTA, 1.27; with ATCCAC, 1.18. In the case of ACACTA, the binding signal stood at 1.14.

CTGTAG: the binding signal amounted to 0.997. To AGATTT belongs 1.16. In turn, AAGATT had a binding signal of 1.14. With AATTTT the figure was 1.38.

As to GCACCT, the binding signal was 1.01.

GCTCAT: the binding signal was 1.15. For the sequence GCGTCC, the binding signal was 1.09.

Consider AGCAAC, for which the binding signal turned out to be 1.09.

As to CTCTCT, the binding signal was found to be 1.58. To AATGAC belongs 1.38; to TCTTAT, 1.35; to CCGAAT, 1.16. With TTTGGG the figure was 1.32; with ACGACT, 1.26.

Take TAGGTC: the binding signal was 0.998.

CTCCGT came in with a binding signal of 1.21. With CTTCGT the figure was 1.43; with CATGCC, 1.12. In turn, ACTCGT had a binding signal of 1.18. With AATCTG the figure was 1.47; with TGGGCT, 1.39; with ACGACG, 1.2.

TTCTCT displayed a binding signal of 1.31. To ATTTCG belongs 1.25; to GCTGCG, 1.02. With CTGTGC the figure was 1.25.
